Laboratory results as given in the supplement of paper PMC10849652.
Some of the results follow.

The chains behind the UniProt entries cited, without tags or fusion partners. Where a name states a change or a piece, a line headed by the entry shows the natural chain unless it says otherwise.
UniProt Q8NC54: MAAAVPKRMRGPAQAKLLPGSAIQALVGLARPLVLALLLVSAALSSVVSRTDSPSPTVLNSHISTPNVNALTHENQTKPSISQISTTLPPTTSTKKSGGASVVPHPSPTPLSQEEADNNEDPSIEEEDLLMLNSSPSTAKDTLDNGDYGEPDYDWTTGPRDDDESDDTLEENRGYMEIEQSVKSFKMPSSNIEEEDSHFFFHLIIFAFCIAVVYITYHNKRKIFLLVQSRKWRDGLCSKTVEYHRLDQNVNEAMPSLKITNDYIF
UniProt Q13576: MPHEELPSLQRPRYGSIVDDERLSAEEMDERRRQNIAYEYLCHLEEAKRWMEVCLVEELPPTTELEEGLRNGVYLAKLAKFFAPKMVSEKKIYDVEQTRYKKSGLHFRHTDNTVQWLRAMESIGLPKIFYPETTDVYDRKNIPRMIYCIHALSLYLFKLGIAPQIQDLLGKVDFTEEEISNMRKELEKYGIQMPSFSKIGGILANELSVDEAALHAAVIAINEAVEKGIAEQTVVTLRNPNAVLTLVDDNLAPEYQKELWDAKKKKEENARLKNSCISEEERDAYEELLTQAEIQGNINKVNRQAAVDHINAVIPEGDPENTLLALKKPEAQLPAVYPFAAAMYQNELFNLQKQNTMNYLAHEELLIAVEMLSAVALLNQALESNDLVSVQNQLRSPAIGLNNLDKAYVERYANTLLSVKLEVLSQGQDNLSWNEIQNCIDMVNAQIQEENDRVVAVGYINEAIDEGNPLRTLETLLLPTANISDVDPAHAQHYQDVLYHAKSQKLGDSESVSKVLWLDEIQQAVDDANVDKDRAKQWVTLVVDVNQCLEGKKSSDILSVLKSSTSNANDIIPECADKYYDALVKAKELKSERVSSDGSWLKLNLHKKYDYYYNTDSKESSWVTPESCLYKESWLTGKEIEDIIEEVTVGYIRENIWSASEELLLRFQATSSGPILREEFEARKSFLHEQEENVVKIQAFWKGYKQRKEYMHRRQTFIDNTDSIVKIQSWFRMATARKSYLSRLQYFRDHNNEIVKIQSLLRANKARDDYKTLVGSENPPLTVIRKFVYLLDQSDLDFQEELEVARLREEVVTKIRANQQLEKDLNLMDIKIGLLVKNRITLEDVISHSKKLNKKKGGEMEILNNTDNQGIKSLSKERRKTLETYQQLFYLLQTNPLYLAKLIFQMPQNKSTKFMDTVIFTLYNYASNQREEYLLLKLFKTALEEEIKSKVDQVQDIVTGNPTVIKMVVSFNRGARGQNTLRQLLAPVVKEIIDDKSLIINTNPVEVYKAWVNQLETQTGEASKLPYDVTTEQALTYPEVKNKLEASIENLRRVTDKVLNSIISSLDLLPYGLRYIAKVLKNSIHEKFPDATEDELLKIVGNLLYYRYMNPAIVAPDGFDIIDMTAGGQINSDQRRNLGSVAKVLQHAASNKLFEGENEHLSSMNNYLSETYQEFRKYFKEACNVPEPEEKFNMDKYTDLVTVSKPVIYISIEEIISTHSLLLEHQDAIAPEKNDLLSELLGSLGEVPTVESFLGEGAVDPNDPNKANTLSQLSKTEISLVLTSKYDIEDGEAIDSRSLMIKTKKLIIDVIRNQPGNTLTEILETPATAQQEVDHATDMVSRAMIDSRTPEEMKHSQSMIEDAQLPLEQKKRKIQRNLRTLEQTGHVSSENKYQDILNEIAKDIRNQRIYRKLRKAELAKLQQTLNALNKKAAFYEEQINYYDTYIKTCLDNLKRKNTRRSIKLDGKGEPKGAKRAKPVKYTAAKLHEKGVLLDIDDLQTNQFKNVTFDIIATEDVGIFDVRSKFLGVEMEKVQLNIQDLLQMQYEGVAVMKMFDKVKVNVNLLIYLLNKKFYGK
UniProt Q674X7: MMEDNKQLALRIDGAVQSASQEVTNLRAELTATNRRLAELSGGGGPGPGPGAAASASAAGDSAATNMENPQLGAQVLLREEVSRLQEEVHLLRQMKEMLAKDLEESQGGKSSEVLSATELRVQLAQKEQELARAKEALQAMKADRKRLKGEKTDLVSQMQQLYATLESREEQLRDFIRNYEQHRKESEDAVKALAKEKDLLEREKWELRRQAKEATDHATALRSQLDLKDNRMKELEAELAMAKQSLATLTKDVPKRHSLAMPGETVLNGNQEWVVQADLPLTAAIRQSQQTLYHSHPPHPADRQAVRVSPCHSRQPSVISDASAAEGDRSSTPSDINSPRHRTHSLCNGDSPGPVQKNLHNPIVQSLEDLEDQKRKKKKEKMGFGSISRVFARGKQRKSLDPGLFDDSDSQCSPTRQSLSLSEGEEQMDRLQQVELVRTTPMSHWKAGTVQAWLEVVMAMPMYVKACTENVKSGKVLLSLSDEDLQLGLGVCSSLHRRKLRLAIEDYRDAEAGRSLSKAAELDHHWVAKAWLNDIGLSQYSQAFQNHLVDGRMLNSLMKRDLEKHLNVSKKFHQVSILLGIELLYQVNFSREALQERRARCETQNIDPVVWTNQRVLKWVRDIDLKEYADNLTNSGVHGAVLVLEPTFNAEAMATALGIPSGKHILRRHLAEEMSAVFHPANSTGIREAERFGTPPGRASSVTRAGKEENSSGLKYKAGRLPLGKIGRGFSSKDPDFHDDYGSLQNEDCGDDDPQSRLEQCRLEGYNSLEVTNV
UniProt Q9NPH2: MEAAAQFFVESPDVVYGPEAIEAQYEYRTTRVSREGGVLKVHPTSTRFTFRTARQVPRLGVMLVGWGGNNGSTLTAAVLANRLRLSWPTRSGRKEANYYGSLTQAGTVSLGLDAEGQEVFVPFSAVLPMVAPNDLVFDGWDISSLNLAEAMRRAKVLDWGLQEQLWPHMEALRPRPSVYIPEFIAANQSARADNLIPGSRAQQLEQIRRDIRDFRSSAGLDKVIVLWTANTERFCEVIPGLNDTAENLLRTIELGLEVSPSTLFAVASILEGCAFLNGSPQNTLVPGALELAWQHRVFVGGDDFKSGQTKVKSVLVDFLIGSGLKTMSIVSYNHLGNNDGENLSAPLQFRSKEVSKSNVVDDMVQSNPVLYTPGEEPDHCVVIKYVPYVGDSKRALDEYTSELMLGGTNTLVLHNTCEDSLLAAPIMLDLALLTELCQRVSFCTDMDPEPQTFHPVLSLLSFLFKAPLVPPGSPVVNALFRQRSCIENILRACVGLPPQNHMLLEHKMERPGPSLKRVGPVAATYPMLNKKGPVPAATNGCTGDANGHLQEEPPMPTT
UniProt Q9UL03, whole entry, looked up: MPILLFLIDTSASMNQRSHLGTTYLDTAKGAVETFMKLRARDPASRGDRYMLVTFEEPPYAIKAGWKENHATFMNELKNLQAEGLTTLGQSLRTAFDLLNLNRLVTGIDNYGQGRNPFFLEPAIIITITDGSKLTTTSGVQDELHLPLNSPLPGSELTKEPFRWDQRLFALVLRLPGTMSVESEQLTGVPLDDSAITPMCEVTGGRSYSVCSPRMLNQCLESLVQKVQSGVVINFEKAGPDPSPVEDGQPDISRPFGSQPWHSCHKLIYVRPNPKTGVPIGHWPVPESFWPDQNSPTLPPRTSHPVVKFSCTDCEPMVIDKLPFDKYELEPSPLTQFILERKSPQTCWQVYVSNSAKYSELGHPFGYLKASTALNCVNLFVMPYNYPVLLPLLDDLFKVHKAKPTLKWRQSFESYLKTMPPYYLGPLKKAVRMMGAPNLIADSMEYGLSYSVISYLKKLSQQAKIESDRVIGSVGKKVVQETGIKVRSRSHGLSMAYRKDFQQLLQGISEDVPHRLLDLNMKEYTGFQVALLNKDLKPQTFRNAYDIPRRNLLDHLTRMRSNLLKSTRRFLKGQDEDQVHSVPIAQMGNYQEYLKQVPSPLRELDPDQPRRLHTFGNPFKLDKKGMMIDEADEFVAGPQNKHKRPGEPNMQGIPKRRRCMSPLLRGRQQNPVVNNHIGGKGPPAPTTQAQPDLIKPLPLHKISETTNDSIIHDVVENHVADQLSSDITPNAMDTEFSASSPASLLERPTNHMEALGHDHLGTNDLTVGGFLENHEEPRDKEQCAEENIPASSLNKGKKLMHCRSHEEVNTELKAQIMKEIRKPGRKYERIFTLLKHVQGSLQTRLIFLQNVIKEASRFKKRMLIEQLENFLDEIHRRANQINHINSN
UniProt Q96CN7: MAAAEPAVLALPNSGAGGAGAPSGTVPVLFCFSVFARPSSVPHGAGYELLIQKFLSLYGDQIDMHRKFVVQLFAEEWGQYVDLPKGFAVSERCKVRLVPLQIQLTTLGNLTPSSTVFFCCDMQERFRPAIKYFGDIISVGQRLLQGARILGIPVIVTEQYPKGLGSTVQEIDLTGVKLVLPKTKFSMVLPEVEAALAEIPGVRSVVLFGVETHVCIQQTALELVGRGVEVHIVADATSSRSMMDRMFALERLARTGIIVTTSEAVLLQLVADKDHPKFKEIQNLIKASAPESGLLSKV
UniProt Q15046, whole entry, looked up: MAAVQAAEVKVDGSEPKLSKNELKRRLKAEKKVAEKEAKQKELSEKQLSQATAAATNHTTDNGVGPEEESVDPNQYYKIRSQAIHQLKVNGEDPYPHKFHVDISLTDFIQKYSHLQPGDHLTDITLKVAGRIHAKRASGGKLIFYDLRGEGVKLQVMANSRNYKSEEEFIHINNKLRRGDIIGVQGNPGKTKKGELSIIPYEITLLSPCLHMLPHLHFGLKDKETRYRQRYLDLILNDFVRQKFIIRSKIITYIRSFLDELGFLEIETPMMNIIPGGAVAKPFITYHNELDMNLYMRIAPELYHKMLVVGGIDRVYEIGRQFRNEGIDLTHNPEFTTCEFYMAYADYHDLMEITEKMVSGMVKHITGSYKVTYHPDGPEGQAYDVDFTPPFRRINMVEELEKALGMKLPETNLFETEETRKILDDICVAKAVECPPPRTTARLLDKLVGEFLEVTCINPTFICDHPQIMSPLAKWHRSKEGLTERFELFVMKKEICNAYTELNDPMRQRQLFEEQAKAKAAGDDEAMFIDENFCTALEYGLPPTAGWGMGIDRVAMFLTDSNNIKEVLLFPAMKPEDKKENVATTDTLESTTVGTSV
UniProt Q9H1K1: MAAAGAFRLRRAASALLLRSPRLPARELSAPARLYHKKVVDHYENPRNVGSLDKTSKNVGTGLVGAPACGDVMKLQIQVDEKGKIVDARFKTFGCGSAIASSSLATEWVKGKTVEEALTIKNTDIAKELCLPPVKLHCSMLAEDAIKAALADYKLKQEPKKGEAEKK
UniProt Q9ULR0: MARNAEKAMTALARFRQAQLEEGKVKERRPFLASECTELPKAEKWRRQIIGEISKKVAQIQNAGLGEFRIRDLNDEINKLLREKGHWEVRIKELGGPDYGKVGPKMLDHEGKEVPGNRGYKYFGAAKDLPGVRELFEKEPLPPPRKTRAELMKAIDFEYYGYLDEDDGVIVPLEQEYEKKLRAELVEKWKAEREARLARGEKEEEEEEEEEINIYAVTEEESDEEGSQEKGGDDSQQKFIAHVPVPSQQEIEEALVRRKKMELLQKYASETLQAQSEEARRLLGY

Legend:
Assay in all cases: log2 fold change, soluble protein after heating vs DMSO (PISA); higher = thermal stabilisation; K562 lysate, 10 uM; active = over 0.2 and 3.5 SD of the protein, either way, in both replicates (recomputed)
lapatinib = compound: CS(=O)(=O)CCNCc1ccc(-c2ccc3ncnc(Nc4ccc(OCc5cccc(F)c5)c(Cl)c4)c3c2)o1 [lapatinib]
How it was run: (§1)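 Log-two fold change in thermal stability relative to solvent controls is reported from duplicates. For each sample, crude K562 extract from dounce-homogenised pellets in PBS pH 7.4 with 1 mM MgCl2, at 1 mg/mL protein, was treated with 10 μM compound for 30 min. Aliquots heated for 3 min across 48°C-58°C were pooled, brought to 0.5% NP-40 at 4°C and cleared at 21,000xg for 90 min. The supernatant was quantified by TMTpro 16plex LC-MS/MS with channel sums equalised.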

pictilisib = compound: CS(=O)(=O)N1CCN(Cc2cc3nc(-c4cccc5[nH]ncc45)nc(N4CCOCC4)c3s2)CC1 [pictilisib]
How it was run: as §1

crizotinib = compound: C[C@@H](Oc1cc(-c2cnn(C3CCNCC3)c2)cnc1N)c1c(Cl)ccc(F)c1Cl [crizotinib]
How it was run: as §1

[1] = compound: C[C@H](C1=CC=C(C=C1)C(=O)NC2=C3C=CNC3=NC=C2)N
How it was run: as §1

duvelisib = compound: C[C@H](Nc1ncnc2nc[nH]c12)c1cc2cccc(Cl)c2c(=O)n1-c1ccccc1 [duvelisib]
How it was run: as §1

gandotinib = compound: Cc1cc(Nc2cc(CN3CCOCC3)c3nc(C)c(Cc4ccc(Cl)cc4F)n3n2)n[nH]1 [gandotinib]
How it was run: as §1

tozasertib = compound: Cc1cc(Nc2cc(N3CCN(C)CC3)nc(Sc3ccc(NC(=O)C4CC4)cc3)n2)n[nH]1 [tozasertib]
How it was run: as §1

doramapimod = compound: Cc1ccc(-n2nc(C(C)(C)C)cc2NC(=O)Nc2ccc(OCCN3CCOCC3)c3ccccc23)cc1 [doramapimod]
How it was run: as §1

bafetinib = compound: Cc1ccc(NC(=O)c2ccc(CN3CC[C@H](N(C)C)C3)c(C(F)(F)F)c2)cc1Nc1nccc(-c2cncnc2)n1 [bafetinib]
How it was run: as §1

[2] = compound: Cc1cccc(CC(=O)N2CCc3c2ccc(-c2cn(C)c4ncnc(N)c24)c3F)n1
How it was run: as §1

nilotinib = compound: Cc1cn(-c2cc(NC(=O)c3ccc(C)c(Nc4nccc(-c5cccnc5)n4)c3)cc(C(F)(F)F)c2)cn1 [nilotinib]
How it was run: as §1

[3] = compound: Cc1nc(Nc2n[nH]c3c2CN(C(=O)N[C@H](CN(C)C)c2ccccc2)C3(C)C)c2sccc2n1
How it was run: as §1

dasatinib = compound: Cc1nc(Nc2ncc(C(=O)Nc3c(C)cccc3Cl)s2)cc(N2CCN(CCO)CC2)n1 [dasatinib]
How it was run: as §1

[4] = compound: Cc1ncc(-c2ccnc(Nc3ccc(S(C)(=O)=O)cc3)n2)n1C(C)C
How it was run: as §1

[5] = compound: Cn1cc(-c2ccc3c(c2)CCN3C(=O)Cc2cccc(C(F)(F)F)c2)c2c(N)ncnc21
How it was run: as §1

quisinostat = compound: Cn1cc(CNCC2CCN(c3ncc(C(=O)NO)cn3)CC2)c2ccccc21 [quisinostat]
How it was run: as §1

tipifarnib = compound: Cn1cncc1[C@@](N)(c1ccc(Cl)cc1)c1ccc2c(c1)c(-c1cccc(Cl)c1)cc(=O)n2C [tipifarnib]
How it was run: as §1

[6] = compound: NC(=O)Nc1cc(-c2cccc(F)c2)sc1C(=O)N[C@H]1CCCNC1
How it was run: as §1

[7] = compound: NC(=O)c1cnc(N[C@@H]2CCCC[C@@H]2N)nc1Nc1cccc(-n2nccn2)c1
How it was run: as §1

[8] = compound: NC1(c2ccc(-c3nc4ccn5c(=O)[nH]nc5c4cc3-c3ccccc3)cc2)CCC1
How it was run: as §1

Target	log2 fold change (lapatinib)	log2 fold change (pictilisib)	log2 fold change (crizotinib)	log2 fold change [1]	log2 fold change (duvelisib)	log2 fold change (gandotinib)	log2 fold change (tozasertib)	log2 fold change (doramapimod)	log2 fold change (bafetinib)	log2 fold change [2]	log2 fold change (nilotinib)	log2 fold change [3]	log2 fold change (dasatinib)	log2 fold change [4]	log2 fold change [5]	log2 fold change (quisinostat)	log2 fold change (tipifarnib)	log2 fold change [6]	log2 fold change [7]	log2 fold change [8]
IPO9 (UniProt Q96P70)	inactive: -0.04	inactive: -0.008	inactive: -0.022	inactive: -0.106	inactive: 0.017	inactive: 0.033	inactive: -0.023	inactive: -0.013	inactive: -0.03	inactive: 0.021	inactive: -0.018	inactive: 0.021	inactive: 0.02	inactive: 0.002	inactive: 0.015	inactive: -0.068	inactive: -0.006	inactive: 0	inactive: -0.013	inactive: -0.006
KCT2 (UniProt Q8NC54)	inactive: -0.005	inactive: -0.018	inactive: 0.048	active: -0.331	inactive: 0.018	active: 0.277	inactive: 0.005	inactive: -0.028	inactive: -0.023	inactive: 0.099	inactive: -0.034	inactive: 0.008	inactive: 0.025	inactive: -0.025	inactive: 0.043	inactive: 0.031	inactive: 0.001	inactive: 0.024	inactive: 0.051	inactive: 0.005
JMJD6 isoform 3 (UniProt Q6NYC1)	inactive: -0.001	inactive: -0.004	inactive: 0.011	inactive: -0.006	inactive: 0.045	inactive: -0.13	inactive: -0.008	inactive: 0.019	inactive: -0.013	inactive: -0.048	inactive: -0.018	inactive: 0.004	inactive: 0.01	inactive: -0.023	inactive: -0.053	inactive: -0.015	inactive: -0.034	inactive: 0.071	inactive: -0.022	inactive: -0.022
INTS5 (UniProt Q6P9B9)	inactive: -0.688	inactive: 0.018	inactive: -0.082	inactive: 0.048	inactive: -0.022	inactive: -0.235	inactive: 0.009	inactive: -0.002	inactive: -0.092	inactive: 0.054	inactive: 0.11	inactive: -0.093	inactive: -0.012	inactive: 0.062	inactive: 0.055	inactive: -0.002	inactive: 0.294	inactive: 0.043	inactive: -0.064	inactive: 0.081
IQGAP2 (UniProt Q13576)	inactive: -0.022	inactive: -0.015	inactive: -0.088	inactive: 0.003	inactive: -0.008	inactive: -0.107	inactive: -0.028	inactive: 0.009	inactive: -0.038	inactive: 0.011	inactive: -0.006	inactive: -0.009	inactive: -0.049	inactive: 0.013	inactive: 0.029	inactive: -0.063	inactive: 0.019	inactive: 0.065	inactive: 0.018	inactive: -0.029
IRGQ (UniProt Q8WZA9)	inactive: 0.002	inactive: -0.029	inactive: -0.003	inactive: -0.016	inactive: 0.003	inactive: 0.022	inactive: 0.014	inactive: 0.021	inactive: -0.002	inactive: 0.029	inactive: 0.019	inactive: 0.05	inactive: 0.035	inactive: 0.053	inactive: 0.01	inactive: 0.009	inactive: -0.01	inactive: 0.011	inactive: 0.005	inactive: -0.018
KAZN (UniProt Q674X7)	inactive: 0.041	inactive: -0.007	inactive: -0.001	inactive: -0.018	inactive: 0.065	inactive: 0.036	inactive: 0.064	inactive: -0.007	inactive: -0.054	inactive: 0.011	inactive: -0.011	inactive: -0.032	inactive: 0.07	inactive: 0.021	inactive: 0.007	inactive: -0.011	inactive: -0.06	inactive: 0.015	inactive: 0.017	inactive: -0.143
ISYNA1 (UniProt Q9NPH2)	inactive: -0.007	inactive: -0.03	inactive: 0.016	inactive: -0.067	inactive: 0.024	inactive: 0.083	inactive: 0.029	inactive: 0.035	inactive: 0.045	inactive: 0.047	inactive: 0.039	inactive: -0.029	inactive: 0.01	inactive: -0.032	inactive: -0.013	inactive: -0.022	inactive: -0.013	inactive: 0.006	inactive: 0.002	inactive: -0.036
IPO5 isoform 3 (UniProt O00410)	inactive: -0.011	inactive: -0.004	inactive: 0.003	inactive: 0.008	inactive: 0.017	inactive: -0.026	inactive: -0.008	inactive: 0.001	inactive: 0.02	inactive: -0.045	inactive: 0.017	inactive: -0.008	inactive: -0.013	inactive: -0.002	inactive: 0.001	inactive: 0.022	inactive: 0.012	inactive: -0.009	inactive: 0.004	inactive: 0.016
IWS1 (UniProt Q96ST2)	inactive: 0.027	inactive: -0.039	inactive: 0.046	inactive: 0.023	inactive: -0.021	inactive: -0.008	inactive: -0.004	inactive: 0.023	inactive: -0.003	inactive: -0.054	inactive: 0.029	inactive: -0.009	inactive: 0.026	inactive: 0.002	inactive: -0.009	inactive: 0.053	inactive: 0.001	inactive: -0.015	inactive: 0.029	inactive: 0.002
INTS6 (UniProt Q9UL03)	inactive: -0.174	inactive: -0.053	inactive: -0.008	inactive: -0.02	inactive: 0.106	inactive: 0.128	inactive: 0.172	inactive: -0.026	inactive: -0.008	inactive: 0.077	inactive: 0.142	inactive: 0.033	inactive: -0.07	inactive: -0.132	inactive: 0.027	inactive: 0.003	inactive: -0.066	inactive: 0.03	inactive: 0.076	inactive: 0.058
ISOC1 (UniProt Q96CN7)	inactive: -0.035	inactive: 0.002	inactive: -0.027	inactive: -0.024	inactive: 0.016	inactive: 0.013	inactive: -0.005	inactive: -0.014	inactive: 0.024	inactive: 0.025	inactive: 0.025	inactive: -0.008	inactive: 0.025	inactive: -0.008	inactive: -0.001	inactive: 0.025	inactive: 0.047	inactive: 0.041	inactive: -0.012	inactive: 0.017
INTS2 (UniProt Q9H0H0)	inactive: 0.013	inactive: -0.014	inactive: -0.05	inactive: 0.046	inactive: -0.05	inactive: -0.119	inactive: 0.021	inactive: 0.046	inactive: -0.245	inactive: 0.085	inactive: 0.035	inactive: 0.001	inactive: -0.114	inactive: -0.009	inactive: 0.068	inactive: -0.004	inactive: 0.094	inactive: 0.033	inactive: -0.136	inactive: -0.096
KARS1 (UniProt Q15046)	inactive: -0.002	inactive: 0	inactive: 0.003	inactive: 0.036	inactive: 0.004	inactive: -0.082	inactive: 0.025	inactive: 0.007	inactive: -0.025	inactive: -0.026	inactive: -0.017	inactive: -0.01	inactive: -0.031	inactive: -0.029	inactive: 0.02	inactive: 0.034	inactive: 0.02	inactive: 0.004	inactive: 0.013	inactive: 0.02
ISCU (UniProt Q9H1K1)	inactive: 0.029	inactive: -0.004	inactive: 0.069	inactive: 0.03	inactive: -0.001	inactive: 0	inactive: 0.068	inactive: -0.034	inactive: 0.001	inactive: -0.037	inactive: -0.047	inactive: 0.092	inactive: 0.033	inactive: 0.011	inactive: 0.001	inactive: 0.063	inactive: 0.041	inactive: 0.004	inactive: 0.035	inactive: 0.027
ISY1 isoform 1 (UniProt Q9ULR0)	inactive: -0.033	inactive: 0.011	inactive: 0.01	inactive: -0.022	inactive: 0.019	inactive: 0.078	inactive: -0.035	inactive: 0.016	inactive: -0.013	inactive: 0.016	inactive: 0.012	inactive: 0.026	inactive: 0.002	inactive: -0.024	inactive: -0.082	inactive: -0.036	inactive: -0.018	inactive: 0.014	inactive: -0.012	inactive: -0.01

No new results follow: entries from further up.
Target	log2 fold change (lapatinib)	log2 fold change (pictilisib)	log2 fold change (crizotinib)	log2 fold change [1]	log2 fold change (duvelisib)	log2 fold change (gandotinib)	log2 fold change (tozasertib)	log2 fold change (doramapimod)	log2 fold change (bafetinib)	log2 fold change [2]	log2 fold change (nilotinib)	log2 fold change [3]	log2 fold change (dasatinib)	log2 fold change [4]	log2 fold change [5]	log2 fold change (quisinostat)	log2 fold change (tipifarnib)	log2 fold change [6]	log2 fold change [7]	log2 fold change [8]
IPO9 (UniProt Q96P70)	inactive: -0.04	inactive: -0.008	inactive: -0.022	inactive: -0.106	inactive: 0.017	inactive: 0.033	inactive: -0.023	inactive: -0.013	inactive: -0.03	inactive: 0.021	inactive: -0.018	inactive: 0.021	inactive: 0.02	inactive: 0.002	inactive: 0.015	inactive: -0.068	inactive: -0.006	inactive: 0	inactive: -0.013	inactive: -0.006
KCT2 (UniProt Q8NC54)	inactive: -0.005	inactive: -0.018	inactive: 0.048	active: -0.331	inactive: 0.018	active: 0.277	inactive: 0.005	inactive: -0.028	inactive: -0.023	inactive: 0.099	inactive: -0.034	inactive: 0.008	inactive: 0.025	inactive: -0.025	inactive: 0.043	inactive: 0.031	inactive: 0.001	inactive: 0.024	inactive: 0.051	inactive: 0.005
JMJD6 isoform 3 (UniProt Q6NYC1)	inactive: -0.001	inactive: -0.004	inactive: 0.011	inactive: -0.006	inactive: 0.045	inactive: -0.13	inactive: -0.008	inactive: 0.019	inactive: -0.013	inactive: -0.048	inactive: -0.018	inactive: 0.004	inactive: 0.01	inactive: -0.023	inactive: -0.053	inactive: -0.015	inactive: -0.034	inactive: 0.071	inactive: -0.022	inactive: -0.022
INTS5 (UniProt Q6P9B9)	inactive: -0.688	inactive: 0.018	inactive: -0.082	inactive: 0.048	inactive: -0.022	inactive: -0.235	inactive: 0.009	inactive: -0.002	inactive: -0.092	inactive: 0.054	inactive: 0.11	inactive: -0.093	inactive: -0.012	inactive: 0.062	inactive: 0.055	inactive: -0.002	inactive: 0.294	inactive: 0.043	inactive: -0.064	inactive: 0.081
